Results published in the supplement of paper PMC7666118.
This is one part of the list.

What follows are compounds tested against HSP90AA1 (UniProt P07900) (assay: dose-dependent thermal stabilisation call (2D-TPP, DLPTP, 10% FDR) (binary (1 = stabilised)); higher = stabilised by the compound). Conditions: system: HL-60 intact cells; concentration range 0.04-10 µM.
Procedure: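 2D thermal proteome profiling in intact HL-60 cells treated with BRD-3811 (0, 0.04, 0.29, 2, 10 uM) for 90 min at 37 C, then heated 3 min at one of 12 temperatures (42-63.9 C). Soluble protein was quantified by TMT10 MS. The value is the DLPTP call of the paper: dose-dependent thermal stabilisation over all temperatures at 10% FDR (F-test of a dose-response against a flat model); one experiment, one call per tested protein.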

SMILES | dose-dependent thermal stabilisation call
COc1ccc(Cn2ccc3cc(C)c(C(=O)NO)cc32)cc1 | inactive: 0
